# Primary screen of a compound library

Protein sequences, listed by entry. Tags and fused reporters are not part of them.
UniProt P9WPC5, whole entry: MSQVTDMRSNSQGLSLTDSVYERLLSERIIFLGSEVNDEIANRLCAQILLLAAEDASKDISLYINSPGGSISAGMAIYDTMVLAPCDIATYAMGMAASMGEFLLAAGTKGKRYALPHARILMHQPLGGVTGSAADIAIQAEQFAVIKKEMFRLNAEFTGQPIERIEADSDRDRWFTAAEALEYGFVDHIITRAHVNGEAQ
UniProt P9WPC3, whole entry partner: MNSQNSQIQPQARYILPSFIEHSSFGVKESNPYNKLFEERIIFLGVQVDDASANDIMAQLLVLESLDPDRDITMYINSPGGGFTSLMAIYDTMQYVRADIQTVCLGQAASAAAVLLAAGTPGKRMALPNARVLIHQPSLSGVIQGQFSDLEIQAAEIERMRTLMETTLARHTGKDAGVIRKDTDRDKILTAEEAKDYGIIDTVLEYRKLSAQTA
UniProt I6X8D2, whole entry: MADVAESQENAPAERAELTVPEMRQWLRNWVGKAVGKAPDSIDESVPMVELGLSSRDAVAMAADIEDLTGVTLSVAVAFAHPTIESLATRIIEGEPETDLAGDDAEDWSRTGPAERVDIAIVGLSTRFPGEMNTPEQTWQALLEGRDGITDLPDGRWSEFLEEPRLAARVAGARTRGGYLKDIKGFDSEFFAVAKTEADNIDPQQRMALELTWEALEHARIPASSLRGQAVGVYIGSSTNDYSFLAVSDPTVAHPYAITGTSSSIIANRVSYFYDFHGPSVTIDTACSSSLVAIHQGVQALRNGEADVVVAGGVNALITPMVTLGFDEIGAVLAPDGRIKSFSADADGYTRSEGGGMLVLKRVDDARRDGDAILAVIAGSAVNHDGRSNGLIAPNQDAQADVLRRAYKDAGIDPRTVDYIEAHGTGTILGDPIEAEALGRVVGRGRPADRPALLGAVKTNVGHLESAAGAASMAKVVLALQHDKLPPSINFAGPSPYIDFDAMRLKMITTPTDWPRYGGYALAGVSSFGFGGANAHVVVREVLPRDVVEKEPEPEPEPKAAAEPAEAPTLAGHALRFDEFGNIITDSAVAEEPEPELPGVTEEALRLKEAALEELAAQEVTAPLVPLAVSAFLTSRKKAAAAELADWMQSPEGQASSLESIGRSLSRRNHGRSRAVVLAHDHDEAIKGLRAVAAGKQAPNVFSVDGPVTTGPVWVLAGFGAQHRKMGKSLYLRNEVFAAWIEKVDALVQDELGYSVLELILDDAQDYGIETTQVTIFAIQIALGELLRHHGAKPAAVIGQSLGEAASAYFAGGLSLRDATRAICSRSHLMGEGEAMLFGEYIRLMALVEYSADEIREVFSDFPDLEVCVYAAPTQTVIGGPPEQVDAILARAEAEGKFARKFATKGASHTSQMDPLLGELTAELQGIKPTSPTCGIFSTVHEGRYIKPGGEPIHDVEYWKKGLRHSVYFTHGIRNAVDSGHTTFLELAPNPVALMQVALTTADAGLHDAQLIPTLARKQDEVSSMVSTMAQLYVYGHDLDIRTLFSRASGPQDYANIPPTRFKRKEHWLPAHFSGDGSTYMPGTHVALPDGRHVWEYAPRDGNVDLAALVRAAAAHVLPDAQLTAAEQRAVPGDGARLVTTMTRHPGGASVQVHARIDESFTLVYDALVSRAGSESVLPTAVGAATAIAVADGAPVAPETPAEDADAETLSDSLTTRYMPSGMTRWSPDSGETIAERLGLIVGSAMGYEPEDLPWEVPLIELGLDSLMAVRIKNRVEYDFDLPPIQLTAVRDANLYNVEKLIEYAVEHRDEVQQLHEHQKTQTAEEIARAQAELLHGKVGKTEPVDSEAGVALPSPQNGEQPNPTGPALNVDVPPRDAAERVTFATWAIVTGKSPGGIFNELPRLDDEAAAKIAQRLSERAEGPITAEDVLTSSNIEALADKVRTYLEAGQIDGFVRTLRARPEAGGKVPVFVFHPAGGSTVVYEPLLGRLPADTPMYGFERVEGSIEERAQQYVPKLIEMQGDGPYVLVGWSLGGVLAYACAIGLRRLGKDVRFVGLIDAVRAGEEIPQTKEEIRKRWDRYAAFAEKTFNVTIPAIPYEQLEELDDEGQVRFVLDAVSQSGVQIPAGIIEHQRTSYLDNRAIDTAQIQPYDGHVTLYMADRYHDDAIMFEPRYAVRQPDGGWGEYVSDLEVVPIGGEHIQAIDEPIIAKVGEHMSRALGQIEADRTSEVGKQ

Leishmania in macrophages: 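Cell assay of Leishmania donovani living inside macrophages; the read-out is not stated. Compounds at 30 µM. The record gives no direction; compounds that gave an IC50 in retests scored well above the rest, so higher reads as stronger inhibition. About 69,000 compounds were tested under these conditions; 1.5% (about 1,000) showed 50% or more at least once.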
Toxoplasma: 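Assay of Toxoplasma gondii numbers, read through their beta-galactosidase reporter with a colour substrate. Concentration: 10 µM. The record gives no direction; the compounds picked for IC50 retests had high values, so higher reads as fewer parasites. Size under these conditions: about 67,000 compounds, about 260 of them at 50% or above in at least one test.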
ClpP1P2: 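Protease assay of ClpP1P2, read by the AMC dye that it sets free. Target: ClpP1P2, Mycobacterium tuberculosis (UniProt P9WPC5 and UniProt P9WPC3). Compounds at 50 µM. Higher reads as stronger inhibition, judged from the few compounds that gave an IC50. Most other retested compounds had strongly negative values. Size under these conditions: about 69,000 compounds, about 10 of them at 50% or above in at least one test.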
T. brucei: 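Whole-parasite assay of Trypanosoma brucei over 72 hours; the read-out is not stated. Concentration: 30 µM. Direction is inferred from retests: higher values go with stronger inhibition. Values scatter widely below zero; nearly all retest evidence comes from the higher of the two concentrations used. Of about 64,000 compounds tested this way, about 940 (1.5%) reached 50% or more in at least one test.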
Pks13 thioesterase: 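Polyketide synthase Pks13, Mycobacterium tuberculosis (UniProt I6X8D2). Enzyme assay of the thioesterase domain of polyketide synthase 13; the read-out is not stated. Concentration: 30 µM. The record gives no direction; the compounds picked for IC50 retests had high values, so higher reads as stronger inhibition. Size under these conditions: about 67,000 compounds, about 300 of them at 50% or above in at least one test.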

The filed quantity is “Percent Effect” (%).
The record does not define 0% and 100%; most values in the screen are far below 50% and negative numbers occur (in some assays of this library far below -100).
The compounds are a random part of those screened.
A dash means the value is not listed here; it may have been measured.

structure | Leishmania in macrophages | Toxoplasma | ClpP1P2 | T. brucei | Pks13 thioesterase
O=C(O)C1CC2(CCN(c3nccc4ccccc34)CC2)CN1 (stereo not drawn) | -1.457% | 16.58% | -9.019% | 23.73% | -27.01%
O=C(O)C(F)(F)F.O=C(O)C(F)(F)F.O=C(O)C(F)(F)F.[H][C@@]12COC[C@]1(C(=O)NCc1ccccn1)CN(Cc1cccnc1)C2 | 1.857% | 5.05% | - | -35.63% | -
CS(=O)(=O)NC1CCCN(C(=O)NCc2cccc(F)c2)C1 (stereo not drawn) | -7.066% | -18% | -37% | - | -9.111%
COc1ccc(CCN2CCCC(Cn3nc(C)nc3C)C2)cc1 (stereo not drawn) | 18.76% | 2.531% | -0.3484% | 1.785% | -13.1%
CCc1c(C)nn(CCNC(=O)c2cc(C3CC3)n[nH]2)c1C | 15.19% | 15.7% | -3.548% | -18.24% | -15.49%
CCS(=O)(=O)N1CC(c2nc(-c3ccncc3)no2)C1 | 22.56% | -25.25% | -15.87% | -28.7% | 0.2592%
CC(CCc1ccccc1)NC(=O)CNCCCN1CCOCC1.O=C(O)C(=O)O (stereo not drawn) | 17.54% | -0.9201% | - | -12.5% | -
COc1cccc([C@@]2(O)CC[C@@H]3CN(C(=O)c4cn(C)nc4C)C[C@@H]32)c1 | - | - | -6.322% | - | 7.131%
Cn1cc(CN2CCCC3(CCCN3S(C)(=O)=O)C2)cn1 (stereo not drawn) | - | - | 2.959% | - | -14.61%
CN1CCCN(C(=O)c2cc3c(s2)CCN3C(=O)c2ccccc2)CC1 | -1.929% | 12.12% | -3.43% | -8.235% | -
Cc1cc(C(C)NC(=O)Cn2nc(C)c3ccccc3c2=O)c(C)o1 (stereo not drawn) | -18.24% | -10.79% | -8.7% | -25.01% | -5.197%
Cc1cnc(C(=O)N2CCC3(CC2)C(=O)NCCN3CC(C)C)cn1 | 32.9% | -5.403% | 0.8711% | -12.19% | -25.17%
Cc1ccc(F)c(S(=O)(=O)NCc2cccc(C(=O)N3CCCC3)c2)c1 | -4.153% | -5.576% | -5.032% | - | -36.41%
CCS(=O)(=O)c1ncc(CN2CCN(C)CC2)n1CCc1ccccc1 | -18.69% | -1.736% | -11.38% | -13.97% | -6.656%
Fc1cccc(-c2nnn3c2COC(CNCc2cccs2)C3)c1 (stereo not drawn) | - | - | -11.37% | - | -19.3%
COc1ccccc1-c1csc(-c2cccc(C(=O)O)c2)n1 | 7.631% | -16.98% | 4.78% | -52.04% | 4.043%
Cc1cnc(N)c(C(=O)C2CCN(C(=O)c3cnc(C)cn3)CC2)c1 | -17.88% | -7.107% | -37.52% | 4.992% | 9.654%
Cc1ccc(CN2C[C@@H]3[C@@H](C(=O)NCC(C)C)CCS(=O)(=O)[C@@H]3C2)cc1 | - | - | -14.64% | - | -36.53%
CN(C)C(=O)CN1CCCC2(CCN(c3ccsc3)C2=O)C1 (stereo not drawn) | - | - | 14.05% | - | -16.13%
Cc1ccc(-c2noc(CN3CCc4nn(C)c(=O)cc4C3)n2)cc1 | 14.74% | -5.643% | -39.92% | 21.26% | 25.76%
CC(C)CC(=O)N1CCC2(CC1)COCCN2Cc1ccc(F)cc1.O=C(O)C(F)(F)F | 26.65% | -9.235% | - | 17.24% | -
CC(C)CN1CCN(C(=O)NCc2cccnc2-n2cccn2)CC1 | -0.09779% | -2.311% | -4.026% | -6.439% | -6.767%
Cn1cc(C(=O)N2CCCC(Cc3nccs3)C2)cn1 (stereo not drawn) | -19.04% | -6.063% | 4.278% | 45.31% | -11.3%
COc1ccnc(N2CCN(CC(=O)N3CCC(C)CC3)CC2)n1 | 22.79% | 1.481% | -4.901% | 16.01% | -3.752%
CCCNC(=O)CN1CCC(NC(=O)c2cc(CC)ccc2O)CC1 | 26.97% | -15.26% | -1.985% | 42.62% | -33.06%
Cn1cc(C2CCCN2C(=O)Cn2ccc3ccc(Cl)cc32)cn1 (stereo not drawn) | 9.477% | 17.69% | 7.138% | -13.86% | -20.33%
CN1CCC2(CCCN(C(=O)c3cncn3C)C2)CC1.O=C(O)C(F)(F)F | 9.273% | -30.05% | - | -80.4% | -
CC(C(=O)N1CCOCC1)S(=O)(=O)Cc1nc(C(C)(C)C)no1 (stereo not drawn) | 12.32% | 6.54% | -12.75% | -96.74% | 5.7%
Cc1csc(N2CCC(CCN3CCCC3=O)CC2)n1 | 18.44% | 4.738% | -4.688% | -16.33% | -0.1775%
Cc1nc(=O)c2ccccc2n1C1=CCN(CC(=O)NC(C)C)CC1 | 64.5% | -8.773% | -37.35% | 11.71% | 5.098%
Cc1nn(CCO)cc1CN1CCCC1c1nc2c(C)cccc2[nH]1 (stereo not drawn) | 5.254% | 17.81% | 0.7807% | -28.28% | -66.58%
CN(Cc1ccccc1F)C(=O)Cn1cc(NC(=O)C(C)(C)C)cn1 | -6.625% | 7.386% | -0.5552% | -0.06216% | -10.42%
Cc1nc(CN2CCCC(NCC(=O)Nc3cccnc3)C2)no1 (stereo not drawn) | 19.02% | 1.969% | -11.44% | 23.89% | -14.93%
Cc1nc(CO[C@H]2CN(Cc3ccccn3)[C@@H]3CCCO[C@H]23)cs1 | - | - | -10.84% | - | 1.707%
OC1(CN2CCC(Cc3ncccn3)CC2)CCCCC1 | 23.22% | -7.181% | -13.93% | -18.35% | 8.775%
Cc1cc(C2CCCN2C(=O)NCc2cccnc2)on1 (stereo not drawn) | 30.26% | - | -2.467% | -15.65% | -
FC(F)(F)c1ccc2nc([C@H]3CCN(C4CCC4)C3)[nH]c2c1 | -91.43% | -1.622% | -1.506% | 39.11% | 4.676%
[H][C@@]12CN(CC3CCC3)C[C@]1(C(=O)O)CN(c1cnccn1)C2 | -6.703% | -5.664% | - | -12.79% | -
CN(C)[C@@H]1CCN(C(=O)C2CCOCC2)[C@H]1Cc1ccncc1.O=C(O)C(F)(F)F.O=C(O)C(F)(F)F | 21.8% | 0.028% | - | -17.97% | -
O=C(CC1COCCN1)NCCc1noc(-c2ccccc2)n1 (stereo not drawn) | 13.03% | -0.3121% | 2.938% | -38% | -5.746%
CNC(=O)N1CCC2(CC1)c1ncc(C)n1CCN2C | - | - | -11.44% | - | -5.798%
NC(=O)C1CCN(C(=O)c2cccn2Cc2cccs2)C1 (stereo not drawn) | 23.17% | -28.38% | -12.77% | - | -17.4%
CC(C)CCN1CCN(C(=O)c2ccc(=O)[nH]n2)CC1 | 20.4% | -4.961% | 26.03% | 13.62% | -18.73%
O=c1n(CCn2cccc2)nc(C2CCNCC2)n1Cc1ccccc1 | 10.88% | -11.17% | -3.9% | -26.84% | -10.14%
[H][C@]12CC[C@]([H])(CN(C(=O)c3cnccn3)C1)N(Cc1cnn(CC)c1)C2 | 39.12% | -8.522% | - | 0.8265% | -
CCNc1cc2c(nn1)CCN(C(=O)CCc1c(C)noc1C)C2 | 0.9473% | -9.687% | -18.85% | -16.56% | -19.35%
Cc1ccoc1-c1nnc(CN2CCOC(Cn3cccn3)C2)o1 (stereo not drawn) | 24.13% | 8.747% | -19.24% | - | -3.249%
COCCN1CCCn2cnc(CNC3CCCC3)c2C1.Cl.Cl | 40.28% | 1.856% | - | - | -
CN1CCC(c2nnc(CN3CCCCC3)n2C)CC1 | -41.83% | 5.486% | 0.227% | -76.74% | -12.54%
CCCc1n[nH]c(C2CN(Cc3nnc(C4CCC4)o3)CCO2)n1 (stereo not drawn) | 3.867% | -4.354% | -24.04% | - | -3.209%
CC(c1cccc(O)c1)N(C)S(N)(=O)=O (stereo not drawn) | -12.31% | 5.161% | 14.96% | -95.48% | 10.06%

Repeated from the top, 3 entries:

- O=C(O)C1CC2(CCN(c3nccc4ccccc34)CC2)CN1 (stereo not drawn) | Leishmania in macrophages: -1.457%; Toxoplasma: 16.58%; ClpP1P2: -9.019%; T. brucei: 23.73%; Pks13 thioesterase: -27.01%
- O=C(O)C(F)(F)F.O=C(O)C(F)(F)F.O=C(O)C(F)(F)F.[H][C@@]12COC[C@]1(C(=O)NCc1ccccn1)CN(Cc1cccnc1)C2 | Leishmania in macrophages: 1.857%; Toxoplasma: 5.05%; T. brucei: -35.63%
- CS(=O)(=O)NC1CCCN(C(=O)NCc2cccc(F)c2)C1 (stereo not drawn) | Leishmania in macrophages: -7.066%; Toxoplasma: -18%; ClpP1P2: -37%; Pks13 thioesterase: -9.111%

The values are deposited in ChEMBL (CHEMBL3988442, “University of Dundee, Small-Polar-MMV Screening Library” (2021)).